Experimental data: patent US20130288302A1
These are yes or no findings as the source states them, for the method shown. Some binding calls cover weakened binding; strength is not graded here.

Protein sequences, listed by entry. Tags and fused reporters are not part of them. Lines headed by an entry give the natural chain unless they say otherwise; changes in a name come on top.
UniProt P38570: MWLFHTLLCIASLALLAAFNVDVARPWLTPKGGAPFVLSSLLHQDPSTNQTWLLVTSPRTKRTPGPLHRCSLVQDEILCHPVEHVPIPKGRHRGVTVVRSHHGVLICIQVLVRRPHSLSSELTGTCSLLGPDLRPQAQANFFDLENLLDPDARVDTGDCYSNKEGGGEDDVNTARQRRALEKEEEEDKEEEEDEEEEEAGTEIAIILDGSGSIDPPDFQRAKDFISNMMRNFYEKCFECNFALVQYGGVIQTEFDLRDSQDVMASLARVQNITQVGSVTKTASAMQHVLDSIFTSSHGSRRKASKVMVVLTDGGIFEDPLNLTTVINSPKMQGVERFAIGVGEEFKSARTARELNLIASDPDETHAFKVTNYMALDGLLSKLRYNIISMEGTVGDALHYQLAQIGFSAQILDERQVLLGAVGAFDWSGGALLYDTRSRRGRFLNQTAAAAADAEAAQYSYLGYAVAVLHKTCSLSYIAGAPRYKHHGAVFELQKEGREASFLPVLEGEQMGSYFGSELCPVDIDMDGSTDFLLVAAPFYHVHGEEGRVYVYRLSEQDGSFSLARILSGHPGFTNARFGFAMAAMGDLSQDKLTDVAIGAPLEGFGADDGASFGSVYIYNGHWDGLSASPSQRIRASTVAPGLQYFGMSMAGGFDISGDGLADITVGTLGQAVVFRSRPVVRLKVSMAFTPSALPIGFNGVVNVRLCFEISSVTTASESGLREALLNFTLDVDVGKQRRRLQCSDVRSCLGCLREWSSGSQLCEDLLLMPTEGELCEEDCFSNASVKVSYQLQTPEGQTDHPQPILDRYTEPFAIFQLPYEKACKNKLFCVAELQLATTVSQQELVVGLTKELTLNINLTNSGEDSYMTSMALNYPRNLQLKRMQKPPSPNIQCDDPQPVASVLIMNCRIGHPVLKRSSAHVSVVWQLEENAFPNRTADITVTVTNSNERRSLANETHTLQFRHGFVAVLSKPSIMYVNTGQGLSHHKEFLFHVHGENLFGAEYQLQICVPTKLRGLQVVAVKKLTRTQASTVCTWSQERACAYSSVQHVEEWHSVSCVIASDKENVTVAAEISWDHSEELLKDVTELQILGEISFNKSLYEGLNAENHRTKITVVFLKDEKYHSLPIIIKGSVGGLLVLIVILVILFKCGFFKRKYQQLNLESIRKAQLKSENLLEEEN
UniProt P26010: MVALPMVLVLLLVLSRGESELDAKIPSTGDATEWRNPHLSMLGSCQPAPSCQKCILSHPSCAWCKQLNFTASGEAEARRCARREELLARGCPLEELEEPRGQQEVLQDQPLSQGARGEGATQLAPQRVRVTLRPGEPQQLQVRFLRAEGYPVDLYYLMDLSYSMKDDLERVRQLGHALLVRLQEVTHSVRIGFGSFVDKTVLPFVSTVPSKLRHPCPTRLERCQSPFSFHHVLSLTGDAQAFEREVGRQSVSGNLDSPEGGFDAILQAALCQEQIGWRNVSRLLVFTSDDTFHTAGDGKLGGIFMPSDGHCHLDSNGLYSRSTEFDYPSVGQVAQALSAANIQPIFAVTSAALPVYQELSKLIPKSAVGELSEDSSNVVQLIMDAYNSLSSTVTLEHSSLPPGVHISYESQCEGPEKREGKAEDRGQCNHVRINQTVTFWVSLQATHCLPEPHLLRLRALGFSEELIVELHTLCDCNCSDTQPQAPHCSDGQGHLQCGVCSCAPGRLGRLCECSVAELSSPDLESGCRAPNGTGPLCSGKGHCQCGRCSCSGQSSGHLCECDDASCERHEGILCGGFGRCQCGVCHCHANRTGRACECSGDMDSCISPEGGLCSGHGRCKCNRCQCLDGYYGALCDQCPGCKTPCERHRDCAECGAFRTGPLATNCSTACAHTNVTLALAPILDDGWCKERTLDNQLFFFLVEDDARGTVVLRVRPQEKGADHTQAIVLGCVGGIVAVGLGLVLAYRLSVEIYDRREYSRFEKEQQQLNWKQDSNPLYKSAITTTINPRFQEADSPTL

B1: Variant hu504.5 (IgG) (antibody, name in Kabat numbering, V domains shown)
VH: EVQLVESGGGLVQPGGSLRLSCAASGFFITNNYWGWVRQAPGKGLEWVGYISYSGSTSYNPSLKSRFTISRDTSKNTFYLQMNSLRAEDTAVYYCAMTGSSGYFDFWGQGTLVTVSS
VL: DIQMTQSPSSLSASVGDRVTITCRASESVDSLLHWYQQKPGKAPKLLIKYASQSISGVPSRFSGSGSGTDFTLTISSLQPEDFATYYCQQGNSLPNTFGQGTKVEIKR
B2: Variant hu504.16 (IgG) (antibody, name in Kabat numbering, V domains shown)
VH: EVQLVESGGGLVQPGGSLRLSCAASGFFITNNYWGWVRQAPGKGLEWVGYISYSGSTSYNPSLKSRFTISRDTSKNTFYLQMNSLRAEDTAVYYCAMTGSSGYFDFWGQGTLVTVSS
VL: DIQMTQSPSSLSASVGDRVTITCRASESVDTLLHWYQQKPGKAPKLLIKYASQSISGVPSRFSGSGSGTDFTLTISSLQPEDFATYYCQQGNSLPNTFGQGTKVEIKR
B3: Variant hu504.32 (IgG) (antibody, V domains shown)
VH: EVQLVESGGGLVQPGGSLRLSCAASGFFITNNYWGWVRQAPGKGLEWVGYISYSGSTSYNPSLKSRFTISRDTSKNTFYLQMNSLRAEDTAVYYCAMTGSSGYFDFWGQGTLVTVSS
VL: DIQMTQSPSSLSASVGDRVTITCRASESVDDLLHWYQQKPGKAPKLLIKYASQSISGVPSRFSGSGSGTDFTLTISSLQPEDFATYYCQQGNSLPNTFGQGTKVEIKR

biological target: alphaEbeta7 on transfected 293 cells (human) (UniProt P38570+P26010); test: summary of the cell adhesion inhibition assays

binding, binds:
B1
B2
B3
